# Hit rate of the full screen: of about 31,000 sequences, about 1,400 (4.5%) were called active.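 Rule for the calls: active = median seed-adjusted z-score above 1 or below -1; inactive = the rest.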 This is one part of the list.
# Assay: Novel Modifiers of Survival Motor Neuron (SMN) Protein: Gene Identification via Genome-wide siRNA Screen;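 note: luminescence tracks full-length SMN protein made from the SMN2 reporter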
# Conditions: HEK293T SMN2-luciferase reporter, siRNA knockdown, 72 h; actives lie on both sides
# In short: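 Steps: spot 1 pmol siRNA, add Lipofectamine RNAiMax in serum-free DMEM, seed HEK293T SMN2–luciferase reporter cells; incubate 72 h at 37 °C; add ONE-Glo; normalize luminescence to control siRNA, log10, MAD. Candidates: |MAD| > 1.0.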
row,Sequence,median seed-adjusted z-score
1,GCAUCUUGGAUUACACGGATT against LILRB2,inactive: -0.911
2,CGAAAAACCAUAGACUACATT against WDR33,active: 3.27
3,GGAUGGAAAUAAGGCUAAATT against RAB18,inactive: 0
4,CCAGAGUUCCUCCACAACATT against FOXP3,inactive: -0.421
5,CAGAAGGUAUAGUAGAUUUTT against GSTA5,inactive: 0.523
6,GAUUAAUGCUUGGGUUGAATT against SERPINB11,inactive: 0
7,GCAAUAUAAAGGAACCUUATT against SLC25A31,inactive: -0.615
8,GGCUUGACCUUUUUCGUCUTT against DYNC2H1,inactive: -0.613
9,GAUUGUCCUGUAAUCGCUATT against TXNDC4,inactive: 0.351
10,CGAUCAAUCCAACCGCACATT against MEIS3,inactive: 0.207
11,GGGUAAUGAUGGACUCCCATT against CUX2,inactive: 0
12,GGAUUUACCUCAAGCUUAUTT against OMG,inactive: 0.273
13,UCAGCUGUAUCGACCAGAATT against MYL7,active: -1.21
14,AGCUGUCGCUCUACAAGAATT against PSTPIP1,inactive: -0.342
15,CAAAAUCCCAUAAUAAGAATT against TRIM64,inactive: -0.024
16,GGCUUACAUUGUCUCUAGUTT against PRKRIR,inactive: 0
17,CGGUUUGCAUCUGAACGGATT against SNTG2,inactive: 0.603
18,GGAGAACCAUAGAAAACCATT against RIPK3,inactive: 0.123
19,GAGACAAAUUACUCAAGGATT against PAX3,inactive: 0.0223
20,CGAAAGCUACUGAACUUCATT against CNOT6L,inactive: -0.0259
21,GAAUGGACCGUCUUCAAUATT against CLCN5,inactive: 0.856
22,AGAAGGUUCGGGAAGAAUATT against CD97,inactive: 0.202

# Pulled one by one from the list above (5):
row,Sequence,median seed-adjusted z-score
21,GAAUGGACCGUCUUCAAUATT against CLCN5,inactive: 0.856
5,CAGAAGGUAUAGUAGAUUUTT against GSTA5,inactive: 0.523
6,GAUUAAUGCUUGGGUUGAATT against SERPINB11,inactive: 0
1,GCAUCUUGGAUUACACGGATT against LILRB2,inactive: -0.911
19,GAGACAAAUUACUCAAGGATT against PAX3,inactive: 0.0223

# Further entries follow.

row,Sequence,median seed-adjusted z-score
1,GUAUGUUAACCAAACAGAUTT against CD28,inactive: -0.993
2,GACUGCACCUCAAACGAUUTT against USP44,inactive: 0.374
3,GGGUGAUGCUCAGUAGUCATT against BDNF,inactive: 0
4,GGCAUACUUGGAUUCAACATT against CUL5,inactive: 0.0143
5,ACCGAAUCAUUCGCACAGATT against NCBP2,inactive: -0.247
6,AGACCCACACUAAAGAAUUTT against EXOSC1,inactive: 0.0508
7,GGGUCUGAAGAAUACACCATT against SRPRB,inactive: 0.000693
8,ACACCUCUCCGGACACCAATT against IRF3,inactive: 0.0117
9,GUUGUAAGAUCAUAUCUUATT against AK3L1,inactive: 0.0337
10,CAGCAACCAUGGAAAUCGATT against MYST4,inactive: 0.138
11,CACCUUAAAUGGGAGGGAATT against DIO3,inactive: 0.0911
12,GCCUUGAUCAAGUAACAGATT against PARD6B,inactive: 0.315
13,GAACAAGAGUGUGAUGUGATT against ARG1,inactive: -0.108
14,CCACGACAGUUAUGUCCGATT against BLVRB,inactive: 0.0133
15,GACUCUCGGAAAGAACAAATT against GABRA3,inactive: -0.281
16,GGGAAGAUCCUGUACAUCUTT against PER2,inactive: -0.113
17,GGCUCAAGGGCUUUGCUGATT against ADSSL1,inactive: 0.0976
18,AGGUGUACUUAGACCUGGATT against CHRNB1,inactive: 0.16
19,AGAAUUUCCCUGACCUGGATT against CALY,inactive: 0.216
20,CCCGGAAUGUGACAAAGGATT against RNPS1,inactive: 0
21,GGCUGCCUAUAGACAGGAATT against GFAP,inactive: -0.312
22,CAAGGGUCCAGUUUCAGUCTT against ZNF655,inactive: -0.156

row,Sequence,median seed-adjusted z-score
1,GGAUGAGAGUCGAAUCUCUTT against AMPH,inactive: -0.725
2,CCCGCAAGCUUAAAACCCATT against SNRK,inactive: 0.463
3,GAGCAUACUGUGGAUAAAATT against CA2,inactive: 0.328
4,GAAGCACCUUAAAAAGAGUTT against DTX1,inactive: -0.0757
5,GUAAGAAUGCUGAAGAGUUTT against UBE2L3,inactive: 0.378
6,CUGAUGUUAUUGACAAUGATT against PAICS,inactive: -0.725
7,GGAAAUCCUACUACCGAAATT against RBAK,inactive: 0
8,CGUCCAUCACGGAAACAUUTT against KCNMB2,inactive: 0
9,AGUAUUUAAUGAAACCCUATT against FUT4,inactive: -0.24
10,CCAUCCCAGGUCGAACAUATT against DHX8,inactive: -0.251
11,CCAAAGAUCAUACAUGGAATT against CASP3,inactive: -0.874
12,CAUGGGUACUGGGUCCUCATT against BTNL8,inactive: 0.0508
13,GCAAACAAGUGAUAGUGAUTT against RBM11,inactive: -0.0341
14,GAUGAAUCAUUAUUCGUGATT against AOX1,inactive: -0.0717
15,GCCUAUAGCUCCAACCAGATT against HNF1B,inactive: -0.609
16,CGAAUAGACUUAAUGGACATT against KLHL8,inactive: -0.835
17,CAUGUAACCAUCAAACUGATT against EPM2A,inactive: 0.319
18,GGUGUUGUUUCAUCGUUUUTT against CCNL1,active: -1.26
19,GAUUGUCACUAUUCAGAGATT against DFNB31,inactive: -0.233
20,GGAAGGUUCAUAUCACAAATT against ADCY1,inactive: 0.154
21,CAAAAGAUGCUCAUGCUUUTT against MRPL39,inactive: 0.355
22,GAUCAAGCCUGGGAUGACATT against METAP2,inactive: 0.325

row,Sequence,median seed-adjusted z-score
1,CCGUCUACAUCUGCACGGATT against XRCC3,inactive: 0.332
2,GGGCUUACCUUGGAUGUCATT against LBXCOR1,inactive: 0.0938
3,CCAGAAGCGAAUCACCACATT against POLR2F,active: -3.52
4,GGCACUAUUUCAUUAGUUUTT against GPR39,inactive: 0.0998
5,GCAAGAGGGUUGUAUAUUUTT against DUSP28,inactive: 0
6,GACUAUAAACAGUACGUGUTT against FLOT2,inactive: 0.961
7,GCUGCGACCAGUUCAUUGATT against ABLIM2,inactive: -0.26
8,AGACCAUCCUAUACUGUGATT against KDELR2,inactive: 0
9,CAAGAAGUCUGAAAACCCUTT against WBSCR22,inactive: -0.21
10,GCUCCACCACGGAGAUUGATT against KCNH6,inactive: 0.424
11,CGGUCAUUCUGCUCAAGCATT against DIO2,inactive: -0.549
12,GGACAGUAAGACCAAGAUUTT against PKN1,inactive: -0.753
13,GGAGAUGAACGGAUCCUUUTT against CHGA,inactive: -0.0235
14,GGCAAGUGCUUCACUCAAATT against ZNF665,active: 1.13
15,GAAGUGCACGCGAAACAGATT against ATAD3C,inactive: -0.535
16,CGUCUGACUUCGCUAGCAATT against HOXD11,inactive: -0.185
17,GCUCCUACCUGAUCGUGUUTT against SLC13A2,inactive: 0.172
18,CGAUCACUUCCUACAGUCUTT against RGR,inactive: 0.217
19,CGGUACAGAUUAUCCCGAATT against B4GALT6,inactive: 0.224
20,GGAAUGAGGUUACUUUUUATT against NDUFC2,inactive: -0.0481
21,GUCUACAGCCUGUACAUCUTT against PISD,inactive: 0.231
22,CAGUCUAAACUACGAAAUATT against NUP153,inactive: -0.847

row,Sequence,median seed-adjusted z-score
1,GAACAGUGCUCGGGACUUUTT against CYP2C18,inactive: 0.229
2,CCGGGAAAUUGAUUAUGCATT against SIN3B,inactive: 0.509
3,GAAGCUAACUUCUAUUAAATT against ARL5A,inactive: 0
4,GCCUUAUCGCUGCAUCUAUTT against LAIR1,inactive: -0.0897
5,GACUGUUUAUUAGAGGAAUTT against PDE9A,inactive: 0.708
6,GCGAAAAGAUGUCAAAGAATT against GNAT2,inactive: 0
7,CGAACGAAAGGAUACGGUATT against BAI2,inactive: -0.114
8,AGACCGAUGUGAAUGUGCATT against DIRAS3,inactive: -0.419
9,GAACCGCACACUUCAGAAATT against AATF,inactive: 0.182
10,GGCAAUUCAUUGAUAGCAATT against MYH2,inactive: -0.73
11,GCACCUAAUGAAUAAACGATT against ELOVL6,inactive: 0.742
12,CCUGAAUCCUUAGACUUAATT against PROX1,inactive: -0.372
13,GUAUUUGAGUUACAACUGUTT against MBOAT2,inactive: -0.282
14,GCAGCUACUUUGUGCAGUUTT against CCBL1,inactive: -0.0496
15,GGACGAAGCUGUUCUGGAUTT against F7,inactive: 0.277
16,GCAUUGAACCUGACACCAUTT against AGK,inactive: -0.312
17,GCAAUGACAUGGAGUAUGATT against KIF19,inactive: 0.342
18,ACUUCACUCUUUUGGUUAATT against P2RX4,inactive: 0.467
19,AUAUCGACAGGAUAAAGGUTT against GNG2,inactive: 0.369
20,CACCGAUAUUACUCAACUATT against EOMES,inactive: -0.0248

# Source: PubChem BioAssay AID1347426 (Functional Genomics Laboratory (NCATS/FGL), 2020)
